In article PMC6220109 one finds binding data, which are given here for one molecule.

Protein sequences, listed by entry. Tags and fused reporters are not part of them. Lines headed by an entry give the natural chain unless they say otherwise; changes in a name come on top.
UniProt P36874: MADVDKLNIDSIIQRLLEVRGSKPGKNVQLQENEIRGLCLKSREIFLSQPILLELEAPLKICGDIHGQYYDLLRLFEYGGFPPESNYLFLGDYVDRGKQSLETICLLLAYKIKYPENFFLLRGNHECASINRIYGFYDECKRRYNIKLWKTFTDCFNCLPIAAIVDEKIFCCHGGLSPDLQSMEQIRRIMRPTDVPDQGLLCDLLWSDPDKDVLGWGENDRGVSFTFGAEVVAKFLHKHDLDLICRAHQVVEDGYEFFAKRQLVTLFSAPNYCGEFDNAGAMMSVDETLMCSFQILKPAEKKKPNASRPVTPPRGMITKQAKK

No constants are given. Whether binding was seen depends on the method and setting. Binding seen in cells or lysates may run through a third protein. A result given as binding can be weak or reduced; the word gives no strength. Where a sequence is shown, tags or fusion partners need not be part of it.

For the assay, the target named is Xenopus PP1 (Xenopus laevis (endogenous in oocytes)) (UniProt P36874). The assay can be described thus: co-IP; lysates of Xenopus oocytes micro-injected with cRNA; IP with anti-XePP1 antibodies and Sepharose-protein G; blot with anti-HA; kinetic, band 3 h after microinjection.

B1: HA-tagged PIP region of PfRCC-PIP, wild type, expressed in Xenopus oocytes (domain or fragment, UniProt Q8I2V4 863-1108)
chain: DEYYEENEQDNDDDDDDDEDDGEDDDDDEDDDDEDDDHHHDDNNDDNKYHIVNYDDDTNNEYEDEESFLSTNFYGEKNNSDNINHKNIIIINKKVSDKDNIVLKSSLKKSSSSDGIKKSVSFSKYVYDLAKNNYEPMNFKSFDDITMSEMDQDDNINVTIPEHTFSQSTNKKIYEKDMNNDTSDNTLDTINNYESTFEMKDNLKEKKDNQGKDLLNSHKQNEKEVIQINHLITNMNKNNTLKEELK
For the molecule B1, the binding result is given as “binds”.
